# From PubChem BioAssay AID1347076 (National Center for Advancing Translational Sciences (NCATS), 2019)
# About 13,000 (3.2%) of roughly 400,000 compounds were called active. The inconclusive results got no clear call from the source; some entries with a clear call stand among them for comparison. The call rests on the fitted dose curve; in most records, active means well fitted cell-killing curve with a large enough effect; inconclusive means small, poorly fitted or top-dose-only effect, or effect the other way; inactive means flat fitted curve, though single readings scatter. A potency beside an inconclusive call is a rough fit, not a confirmed value.
# Assay: qHTS assay for MDR1-selective chemotherapeutics: Primary screen using the drug-selected MDR subline cells KB-V1; further: nearly all actives have a fitted effect of over 60% in size
# Details: KB-V1 MDR cells viability, CellTiter-Glo, 72 h; activity change, negative = cytotoxicity: at 46.1 µM (top of the series)
# Procedure, shortened: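 Cytotoxicity toward P-gp-expressing KB-V1 cells was determined as loss of CellTiter-Glo luminescence after 72 h at 37 degrees C. Compounds were tested in quantitative HTS format across a concentration range, with curves fitted to normalized data.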
# On the % scale 0 is the no-effect control and ±100 the full control effect; potency means the concentration at half of the fitted maximal effect.
SMILES,Potency,"activity change, negative = cytotoxicity"
CN(C(=O)CSc1ncnc2ccccc12)C1CCCCC1,"inconclusive: 29.1 µM [cytotoxic, partial curve, poor fit]",
O=C(CCCC(=O)OCC1CCCO1)OCC1CCCO1 (stereo not drawn),"inconclusive: 18.4 µM [rising, single point]",
N#Cc1ccccc1NC(=O)CN1C(=O)NC(Cc2c[nH]c3ccccc23)C1=O (stereo not drawn),"inconclusive: 29.1 µM [rising, partial curve, poor fit]",
Cc1ccc(F)c(S(=O)(=O)NC(=O)C2(C)CCN2C(=O)C/C=C/c2ccccc2)c1 (stereo not drawn),,inactive: 3.57%
c1ccc(N2CCN(Cc3ccsc3)CC2)nc1,"inconclusive: 18.4 µM [cytotoxic, single point]",
O=C(CC(=O)c1cccs1)c1ccncc1,"inconclusive: 0.82 µM [rising, full curve, poor fit]",
CCCCc1c(C)c2ccc(OC)c(/C(C)=N\O)c2oc1=O,active: 5.8 µM,
O=C(NCc1nc(-c2ccccc2)no1)c1ccc(Br)o1,"inconclusive: 20.6 µM [cytotoxic, single point]",
CCc1nc(N2CCOCC2)c(C#N)c2c1CCCC2,"inconclusive: 11.2 µM [cytotoxic, partial curve]",
COc1ccc([C@H]2CC(=O)C=C(c3ccc4ccccc4c3)C2)cc1OC,"inconclusive: 32.6 µM [cytotoxic, partial curve, poor fit]",
O=C(NCc1ccco1)c1cc(S(=O)(=O)N2CCOCC2)c(Cl)cc1Cl,,inactive: 0%
O=Cc1sc(=O)n(Cc2cccc(C(=O)O)c2)c1Cl,,inactive: -0.334%
CC(Sc1nnc(-c2ccncc2)n1C)C(=O)NCC(=O)Nc1ccc(F)c(F)c1F (stereo not drawn),,inactive: 13.9%
O=C(C[n+]1ccccc1Br)c1ccc(F)cc1,,inactive: 0%
CCN1CCn2c3c(c4cc(Br)ccc42)CCCC31 (stereo not drawn),"inconclusive: 29.1 µM [cytotoxic, single point]",
Cn1c(=O)c2c(nc(SCc3nc(N)nc(N4CCCCC4)n3)n2C)n(C)c1=O,active: 14.6 µM,
CCCCn1nc(C(=O)Nc2ccccc2N2CCCC2)c2ccccc2c1=O,active: 3.66 µM,
CC(CCc1ccccc1)NC(=O)CCc1cn(C)c2ccccc12 (stereo not drawn),,inactive: 0%
CCn1nc(C)c(/C=N/NC(=O)Cn2cncn2)c1C,,inactive: 1.19%
CN(C)S(=O)(=O)c1cccc(NC(=O)CO/N=C(\N)c2ccccc2)c1,"inconclusive: 20.6 µM [cytotoxic, single point]",
O=C(Nc1ccc(Nc2ccncc2)cc1)c1ccc(Nc2ccnc3ccc([N+](=O)[O-])cc23)cc1[N+](=O)[O-],,inactive: 13.7%
COc1ccc(CNCc2c(F)cccc2F)cc1OC,,inactive: 28.6%
O=C(N1CCOCC1)N1CCN(c2nc(-c3ccccc3)cs2)CC1,active: 20.6 µM,
Cc1ccc(C)n1-c1ccc(-c2ccnc(N)n2)cc1,"inconclusive: 18.4 µM [cytotoxic, single point]",

# For reference, 3 of the compounds above:
SMILES,Potency,"activity change, negative = cytotoxicity"
CCCCc1c(C)c2ccc(OC)c(/C(C)=N\O)c2oc1=O,active: 5.8 µM,
O=C(NCc1nc(-c2ccccc2)no1)c1ccc(Br)o1,"inconclusive: 20.6 µM [cytotoxic, single point]",
CCc1nc(N2CCOCC2)c(C#N)c2c1CCCC2,"inconclusive: 11.2 µM [cytotoxic, partial curve]",

# Following part

SMILES,Potency,"activity change, negative = cytotoxicity"
CCOC(=O)CNC(=O)c1c(C)nn(C)c1Cl,"inconclusive: 29.1 µM [rising, single point]",
O=C(Nc1ccc(S(=O)(=O)N2CCCCCC2)cc1)c1c(F)cccc1F,"inconclusive: 14.6 µM [cytotoxic, partial curve]",
Cc1cnc(C(=O)OCC(=O)Nc2cccc(C)c2C)cn1,"inconclusive: 29.1 µM [rising, single point]",
COc1ccc(N2C(=O)CC(Sc3nnnn3-c3ccc(F)cc3)C2=O)cc1 (stereo not drawn),,inactive: -12.3%
COCCNC(=S)N1CCCN(c2nc3cc(C)ccc3cc2C#N)CC1,"inconclusive: 23.1 µM [cytotoxic, single point]",
CCOC(=O)N1CCC(NC(=O)c2cc3c(=O)[nH]c4ccccc4c3n2C)CC1,"inconclusive: 29.1 µM [rising, single point]",
COc1ccc(NC(=O)C[C@H]2C(=O)N(c3ccc(Br)cc3)C[C@@H]2C)cc1,"inconclusive: 7.31 µM [cytotoxic, partial curve]",
CCN(Cc1ccccc1)C(=O)Cc1ccc(OC)c(S(=O)(=O)N2CCOCC2)c1,"inconclusive: 23.1 µM [cytotoxic, single point]",
Cc1cc(N2CCCC2=O)cc(C)c1S(=O)(=O)NCCOc1ccc(C(C)(C)C)cc1,"inconclusive: 18.4 µM [cytotoxic, single point]",
O=S(=O)(c1cc(C(F)(F)F)ccc1Cl)N1CCN(c2ccccn2)CC1,"inconclusive: 23.1 µM [cytotoxic, single point]",
Cc1ccc(/C(O)=C2\C(=O)C(=O)N(C)C2c2ccc([N+](=O)[O-])cc2)cc1 (stereo not drawn),"inconclusive: 20.6 µM [rising, single point]",
COc1cccc(OC)c1OCCCCn1cnc2ccccc2c1=O,"inconclusive: 7.31 µM [cytotoxic, partial curve]",
O=C(CNCC1CCCO1)N1CCCCCC1 (stereo not drawn),,inactive: 7.19%
CC(C)Cc1nnc(NS(C)(=O)=O)s1,,inactive: 29.5%
CCc1ccccc1NC(=O)Nc1ccc2snnc2c1,,inactive: -0.528%
CCCCn1c(=O)[nH]c(=O)c2c1nc(-c1cc(Br)c(OCC)c(OC)c1)n2C,"inconclusive: 3.66 µM [cytotoxic, partial curve, poor fit]",
CCc1ccc(NS(=O)(=O)c2ccc3[nH]c4c(c3c2)CCCCCC4)cc1,,inactive: -7.58%
CCCCn1nnnc1C1(C)CCC(=O)N1CCc1c[nH]c2ccccc12 (stereo not drawn),"inconclusive: 20.6 µM [cytotoxic, single point]",
Cc1cccc(-c2noc(CN(C(=O)c3c(-c4ccccc4Cl)noc3C)C(C)C)n2)c1,"inconclusive: 29.1 µM [cytotoxic, partial curve, poor fit]",
CCOc1c(Br)ccc2c1sc1nc[nH]c(=O)c12,active: 20.6 µM,
COc1ccc(CN2CCN(C(=O)c3cccs3)CC2)cc1,active: 20.6 µM,
CCCC(c1nnnn1C(C)(C)CC)N1CCN(C(=O)c2ccco2)CC1 (stereo not drawn),"inconclusive: 5.8 µM [cytotoxic, partial curve, poor fit]",
O=C(NC(Nc1nc2ccc([N+](=O)[O-])cc2s1)(C(F)(F)F)C(F)(F)F)c1ccccc1,active: 0.517 µM,
N#Cc1cc2c(=O)n3ccccc3nc2n(Cc2ccco2)c1=NC(=O)c1ccco1,,inactive: 0%
